Measured values as given in patent US7214767B2, “VHL peptide” (Hiroshi Kanno, priority 2005, dated 2007).
Not every detail of the peptide structures is certain; ends, links or a residue may be inferred.

Tested on: neural stem cells
Assay: TAT/ANT fusion peptide added to culture medium of neural stem cells without BioPORTER Reagent
Assay type: cell-based
Conditions: added at 10 ng/mL

Ac-TLKERCLQVVRSLVKKKWKMRRNQFWVKVQRGK-NH2 [VHL (157–171)-ANT]
differentiation of neural stem cells to neurons: differentiated neural stem cells to neurons
